Measured values taken from the supplement of paper PMC10849652.
The other results are listed elsewhere or left out.

Sequences of proteins named here, by UniProt entry; tags and fusion partners are left off. A change or cut given only in a name is not applied to a line headed by its entry.
UniProt Q9NRS6: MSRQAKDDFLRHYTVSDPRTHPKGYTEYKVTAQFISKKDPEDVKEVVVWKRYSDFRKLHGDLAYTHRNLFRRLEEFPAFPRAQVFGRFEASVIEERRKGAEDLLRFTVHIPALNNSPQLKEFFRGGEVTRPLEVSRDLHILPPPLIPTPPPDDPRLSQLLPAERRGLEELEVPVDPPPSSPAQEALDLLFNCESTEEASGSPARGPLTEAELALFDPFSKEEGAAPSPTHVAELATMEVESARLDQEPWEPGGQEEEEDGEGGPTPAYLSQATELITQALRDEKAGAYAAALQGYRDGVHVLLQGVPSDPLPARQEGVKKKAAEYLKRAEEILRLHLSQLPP
UniProt Q8N5G0: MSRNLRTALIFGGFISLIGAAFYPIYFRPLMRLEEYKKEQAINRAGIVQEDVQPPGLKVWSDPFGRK
UniProt B2RUZ4: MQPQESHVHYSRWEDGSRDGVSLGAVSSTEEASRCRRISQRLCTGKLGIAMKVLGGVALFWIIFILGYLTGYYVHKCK
UniProt Q12824, whole entry, looked up: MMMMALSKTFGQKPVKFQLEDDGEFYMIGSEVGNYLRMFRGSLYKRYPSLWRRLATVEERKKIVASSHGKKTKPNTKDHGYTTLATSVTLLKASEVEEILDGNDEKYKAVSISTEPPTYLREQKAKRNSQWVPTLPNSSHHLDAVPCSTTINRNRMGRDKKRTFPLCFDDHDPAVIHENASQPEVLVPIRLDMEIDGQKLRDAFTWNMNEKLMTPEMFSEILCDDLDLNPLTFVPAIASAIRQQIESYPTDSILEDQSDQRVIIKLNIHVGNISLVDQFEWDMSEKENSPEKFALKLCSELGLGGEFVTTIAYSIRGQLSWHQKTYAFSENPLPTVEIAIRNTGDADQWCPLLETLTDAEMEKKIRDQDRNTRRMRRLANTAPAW
UniProt O00161: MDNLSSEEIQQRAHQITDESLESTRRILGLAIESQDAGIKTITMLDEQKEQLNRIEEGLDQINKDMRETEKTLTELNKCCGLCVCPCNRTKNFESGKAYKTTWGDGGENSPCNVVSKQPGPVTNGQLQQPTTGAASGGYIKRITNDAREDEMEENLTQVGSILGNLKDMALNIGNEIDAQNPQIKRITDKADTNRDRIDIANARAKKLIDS
UniProt Q13425: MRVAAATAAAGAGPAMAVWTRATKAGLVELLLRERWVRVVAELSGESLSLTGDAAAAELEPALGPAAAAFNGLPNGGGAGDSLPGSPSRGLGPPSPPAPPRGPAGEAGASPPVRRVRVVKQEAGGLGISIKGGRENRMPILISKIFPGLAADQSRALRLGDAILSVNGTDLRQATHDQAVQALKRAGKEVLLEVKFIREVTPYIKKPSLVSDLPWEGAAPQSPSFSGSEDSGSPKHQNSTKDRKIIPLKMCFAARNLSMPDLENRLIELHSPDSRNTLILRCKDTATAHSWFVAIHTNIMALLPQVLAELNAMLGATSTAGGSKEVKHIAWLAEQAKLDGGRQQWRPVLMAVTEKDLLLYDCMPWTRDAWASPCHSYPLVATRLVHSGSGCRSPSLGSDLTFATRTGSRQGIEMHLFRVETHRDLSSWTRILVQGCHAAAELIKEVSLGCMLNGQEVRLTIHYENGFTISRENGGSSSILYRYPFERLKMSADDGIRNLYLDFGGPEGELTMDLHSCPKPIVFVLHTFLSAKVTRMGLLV
UniProt Q7Z3B0: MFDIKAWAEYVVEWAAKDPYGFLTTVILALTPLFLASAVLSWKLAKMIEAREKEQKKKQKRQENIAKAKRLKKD

What was measured:
Assay in all cases: log2 fold change, soluble protein after heating vs DMSO (PISA); higher = thermal stabilisation; K562 cells, 10 uM, 30 min; active = over 0.2 and 3.5 SD of the protein, either way, in both replicates (recomputed)
[1] = compound: CC1=C(C=C(C=C1)NC(=O)C2=CC(=CC=C2)C(C)(C)C#N)NC3=CC4=C(C=C3)N=CN(C4=O)C
Outline: (§1)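 For each measurement, 10 μM compound was applied for 30 min to K562 cells at 2×10^6 cells/mL. Aliquots were heated for 3 min across 48°C-58°C, pooled, and extracted in PBS with 0.5% NP-40 at 4°C; the supernatant after 21,000xg for 90 min was soluble protein. This was quantified by TMTpro 16plex LC-MS/MS with channel sums equalised, and thermal stability was reported relative to control samples from duplicates, on a log2 fold-change scale.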

[2] = compound: CC1=C(C=C(C=C1)NC(=O)C2=CC(=CC=C2)N(C)C)NC(=O)C3=CC=C(C=C3)O
Outline: as §1

[3] = compound: CC1=CC=C(C=C1)SC2=C3C=C(SC3=CN=C2)C(=O)N
Outline: as §1

[4] = compound: CC1=NC(=CC=C1)C2=C(N=C(N2)C(C)(C)C)C3=CC4=NC=CN=C4C=C3
Outline: as §1

vemurafenib = compound: CCCS(=O)(=O)Nc1ccc(F)c(C(=O)c2c[nH]c3ncc(-c4ccc(Cl)cc4)cc23)c1F [vemurafenib]
Outline: as §1

[5] = compound: CCCS(=O)(=O)Nc1ccc(F)c(C(=O)c2c[nH]c3ncc(Cl)cc23)c1F
Outline: as §1

[6] = compound: CCCc1cc(C)[nH]c(=O)c1CNC(=O)c1cc(-c2ccnc(N3CCN(C)CC3)c2)cc2c1cnn2C(C)C
Outline: as §1

barasertib = compound: CCN(CCCOc1ccc2c(Nc3cc(CC(=O)Nc4cccc(F)c4)[nH]n3)ncnc2c1)CCOP(=O)(O)O [barasertib]
Outline: as §1

[7] = compound: CC[C@@H]1C(=O)N(C)c2cnc(Nc3ccc(C(=O)NC4CCN(C)CC4)cc3OC)nc2N1C1CCCC1
Outline: as §1

volasertib = compound: CC[C@@H]1C(=O)N(C)c2cnc(Nc3ccc(C(=O)N[C@H]4CC[C@H](N5CCN(CC6CC6)CC5)CC4)cc3OC)nc2N1C(C)C [volasertib]
Outline: as §1

[8] = compound: CC[C@H](C)N1C=C(C2=C(C=C(C=C21)C3=CN=C(C=C3)N4CCNCC4)C(=O)NCC5=C(C=C(NC5=O)C)C)C
Outline: as §1

[9] = compound: CCn1cc(-c2ccnc3[nH]c(-c4cccc(CN(C)C)c4)cc23)c(-c2ccc(NC(=O)N(C)C)cc2)n1
Outline: as §1

[10] = compound: CN(C)CC(=O)Nc1ccc2[nH]c(=O)c3ccccc3c2c1
Outline: as §1

[11] = compound: CN1C2=C(C3=C1C(=O)N(N=C3)CC4=CC(=CC=C4)N)SC(=C2)S(=O)C
Outline: as §1

[12] = compound: CN1CCC(CNc2ccc3ncc(-c4cccc(OC(F)(F)F)c4)n3n2)CC1
Outline: as §1

Nexturastat A = compound: CCCCN(Cc1ccc(C(=O)NO)cc1)C(=O)Nc1ccccc1 [Nexturastat A]
Outline: as §1

givinostat = compound: CCN(CC)Cc1ccc2cc(COC(=O)Nc3ccc(C(=O)NO)cc3)ccc2c1 [givinostat]
Outline: as §1

epoxomicin = compound: CC[C@H](C)[C@@H](C(=O)N[C@@H]([C@@H](C)O)C(=O)N[C@@H](CC(C)C)C(=O)[C@]1(CO1)C)NC(=O)[C@H]([C@@H](C)CC)N(C)C(=O)C [epoxomicin]
Outline: as §1

[13] = compound: CCn1c(C(=O)N(C2CC2)C2CC2)cc2c3c(ncn3C)c(Nc3cc(C)n(C)n3)nc21
Outline: as §1

rosiglitazone = compound: CN(CCOC1=CC=C(C=C1)C[C@H]2C(=O)NC(=O)S2)C3=CC=CC=N3 (racemic) [rosiglitazone]
Outline: as §1

Measured: log2 fold change

SNX15 (UniProt Q9NRS6)
inactive: [1] -0.25 | [2] -0.009 | [3] -0.015 | [4] -0.089 | vemurafenib -0.122 | [5] -0.021 | [6] 0.061 | barasertib 0.012 | [7] 0.177 | volasertib -0.223 | [8] -0.023 | [9] -0.016 | [10] -0.045 | [11] 0.119 | [12] 0.039

SMIM20 isoform 2 (UniProt Q8N5G0)
inactive: [1] 0.01 | [2] 0.008 | [3] -0.052 | Nexturastat A 0.006 | vemurafenib 0.148 | [5] -0.059 | [6] -0.024 | givinostat -0.102 | barasertib -0.026 | [7] 0.069 | volasertib 0.048 | [8] -0.033 | [9] -0.065 | [10] 0.007 | [11] 0.051 | [12] 0.002
active: epoxomicin 0.483

SMIM1 (UniProt B2RUZ4)
inactive: [1] -0.069 | [3] 0.049 | [4] -0.207 | [5] 0.057 | [6] -0.147 | givinostat -0.073 | barasertib -0.075 | [7] 0.013 | volasertib 0.297 | [8] 0.006 | [13] 0.134 | [9] -0.035 | rosiglitazone 0.077 | [11] 0.039 | [12] 0.3

SMARCB1 (UniProt Q12824)
inactive: [1] 0.188 | [4] 0.101 | vemurafenib 0.065 | [7] -0.058 | [9] 0.053 | [10] -0.116 | [11] 0.127 | [12] -0.222

SNAP23 isoform 2 (UniProt O00161)
inactive: [1] 0.294 | [3] -0.081 | [4] 0.065 | Nexturastat A 0.078 | vemurafenib -0.203 | [5] -0.04 | [6] 0.051 | givinostat -0.079 | [7] 0.161 | volasertib 0.054 | epoxomicin 0.056 | [13] 0.077 | [10] 0.09 | [11] -0.097

SNTB2 (UniProt Q13425)
inactive: [1] -0.036 | [2] -0.214 | [3] -0.055 | Nexturastat A 0.001 | vemurafenib 0.033 | [5] 0.041 | barasertib -0.022 | [7] 0.111 | volasertib -0.258 | [8] 0.021 | epoxomicin -0.193 | [9] -0.055 | [10] 0.079 | rosiglitazone -0.028 | [11] 0.013 | [12] -0.121

SMIM15 (UniProt Q7Z3B0)
inactive: [1] 0.083 | [4] 0.111 | Nexturastat A -0.144 | vemurafenib 0.143 | [6] -0.026 | givinostat -0.051 | barasertib -0.095 | [7] -0.11 | [8] -0.006 | epoxomicin -0.348 | [13] 0.044 | [9] -0.161 | [10] 0.05 | rosiglitazone -0.105 | [11] -0.051 | [12] 0.227
